Measurements reported in PubChem BioAssay AID1259308 (NCATS, 2017).

Screen: 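Genes whose loss raises luciferase production in HEK293 cells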 (primary screen)
Cells: human HEK293 embryonic kidney cells stably expressing firefly luciferase (HEK-CMV-Luc2-Hygro)
Reagent: single siRNA against human genes, 0.8 pmol siRNA per well
Duration: 72 h
Read-out: 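Luciferase light (ONE-Glo) measured on one replicate plate set and viability (CellTiter-Glo) on the other, scaled to a negative control siRNA, with robust z-scores and luciferase per cell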
Scale: total luciferase, z-score and total luciferase, % of control: higher = more reporter protein produced
Active means: 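An siRNA counts as active if its total luciferase robust z-score exceeds 3; genes with two or more such siRNAs out of three were retested with fresh siRNAs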
Calls: active = raised luciferase; inactive = no rise
Shown is a random part of about 59,000 deposited reagents. In the full data, about 1,510 (2.6%) got an active call. 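Calls use total luciferase alone and ignore viability, so some active siRNAs may act by altering cell number.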 A number with no mark means an inactive call. Reagents against one gene are numbered here. Further read-outs or replicates are left out here. No sequences are given here.

PRM2 (protamine 2) #1 — total luciferase, z-score: -0.132; total luciferase, % of control: 79.3
PRM2 (protamine 2) #2 — total luciferase, z-score: -1.4; total luciferase, % of control: 54.1
PRM2 (protamine 2) #3 — total luciferase, z-score: 0.226; total luciferase, % of control: 86.4
PSMB6 (proteasome 20S subunit beta 6) #1 — total luciferase, z-score: -1.2; total luciferase, % of control: 58
PSMB6 (proteasome 20S subunit beta 6) #2 — total luciferase, z-score: 0.785; total luciferase, % of control: 97.5
PSMB6 (proteasome 20S subunit beta 6) #3 — total luciferase, z-score: -0.0634; total luciferase, % of control: 80.6
AHCYL1 (adenosylhomocysteinase like 1) #1 — total luciferase, z-score: 0.311; total luciferase, % of control: 88.1
AHCYL1 (adenosylhomocysteinase like 1) #2 — total luciferase, z-score: -0.612; total luciferase, % of control: 69.7
AHCYL1 (adenosylhomocysteinase like 1) #3 — total luciferase, z-score: -0.13; total luciferase, % of control: 79.3
RFC1 (replication factor C subunit 1) #1 — total luciferase, z-score: -0.246; total luciferase, % of control: 77
RFC1 (replication factor C subunit 1) #2 — total luciferase, z-score: 0.804; total luciferase, % of control: 97.9
RFC1 (replication factor C subunit 1) #3 — total luciferase, z-score: -0.313; total luciferase, % of control: 75.7
ANKRA2 (ankyrin repeat family A member 2) #1 — total luciferase, z-score: -1.01; total luciferase, % of control: 61.9
ANKRA2 (ankyrin repeat family A member 2) #2 — total luciferase, z-score: 2.24; total luciferase, % of control: 126
ANKRA2 (ankyrin repeat family A member 2) #3 — total luciferase, z-score: -0.26; total luciferase, % of control: 76.7
MUC15 (mucin 15, cell surface associated) #1 — total luciferase, z-score: 0.672; total luciferase, % of control: 95.2
MUC15 (mucin 15, cell surface associated) #2 — total luciferase, z-score: 0.374; total luciferase, % of control: 89.3
MUC15 (mucin 15, cell surface associated) #3 — total luciferase, z-score: -0.368; total luciferase, % of control: 74.6
POFUT3 (protein O-fucosyltransferase 3) #1 — total luciferase, z-score: 1.98; total luciferase, % of control: 121
POFUT3 (protein O-fucosyltransferase 3) #2 — total luciferase, z-score: -1.24; total luciferase, % of control: 57.3
POFUT3 (protein O-fucosyltransferase 3) #3 — total luciferase, z-score: 0.468; total luciferase, % of control: 91.2
RUSC1-AS1 (RUSC1 antisense RNA 1) #1 — total luciferase, z-score: 0.336; total luciferase, % of control: 88.6
RUSC1-AS1 (RUSC1 antisense RNA 1) #2 — total luciferase, z-score: 0.486; total luciferase, % of control: 91.6
RUSC1-AS1 (RUSC1 antisense RNA 1) #3 — total luciferase, z-score: -2.03; total luciferase, % of control: 41.4
MAPK13 (mitogen-activated protein kinase 13) #1 — total luciferase, z-score: 0.115; total luciferase, % of control: 84.2
MAPK13 (mitogen-activated protein kinase 13) #2 — total luciferase, z-score: 0.691; total luciferase, % of control: 95.6
MAPK13 (mitogen-activated protein kinase 13) #3 — total luciferase, z-score: -1.78; total luciferase, % of control: 46.6

An excerpt from above, showing only “total luciferase, z-score”.
RFC1 (replication factor C subunit 1) #1: -0.246
RFC1 (replication factor C subunit 1) #2: 0.804

Additional results follow.
PDRG1 (p53 and DNA damage regulated 1) #1 — total luciferase, z-score: 0.932; total luciferase, % of control: 100
PDRG1 (p53 and DNA damage regulated 1) #2 — total luciferase, z-score: 0.246; total luciferase, % of control: 86.8
PDRG1 (p53 and DNA damage regulated 1) #3 — total luciferase, z-score: -0.105; total luciferase, % of control: 79.8
STK38 (serine/threonine kinase 38) #1 — total luciferase, z-score: -1.89; total luciferase, % of control: 44.4
STK38 (serine/threonine kinase 38) #2 — total luciferase, z-score: -0.706; total luciferase, % of control: 67.8
STK38 (serine/threonine kinase 38) #3 — total luciferase, z-score: 0.0812; total luciferase, % of control: 83.5
DENND1B (DENN domain containing 1B) #1 — total luciferase, z-score: 0.443; total luciferase, % of control: 90.7
DENND1B (DENN domain containing 1B) #2 — total luciferase, z-score: 1.37; total luciferase, % of control: 109
DENND1B (DENN domain containing 1B) #3 — total luciferase, z-score: -1.84; total luciferase, % of control: 45.2
DENND1B (DENN domain containing 1B) #4 — total luciferase, z-score: 2.57; total luciferase, % of control: 133
DENND1B (DENN domain containing 1B) #5 — total luciferase, z-score: -0.295; total luciferase, % of control: 76
DENND1B (DENN domain containing 1B) #6 — total luciferase, z-score: -1.56; total luciferase, % of control: 50.8
NAB1 (NGFI-A binding protein 1) #1 — total luciferase, z-score: -1.66; total luciferase, % of control: 48.9
NAB1 (NGFI-A binding protein 1) #2 — total luciferase, z-score: -1.04; total luciferase, % of control: 61.1
NAB1 (NGFI-A binding protein 1) #3 — total luciferase, z-score: 1.22; total luciferase, % of control: 106
